These are yes or no findings as the source states them, for the method shown. In cells and extracts the contact can be indirect. These calls come from enrichment with a bait or labelling near it, and not all partners need be listed. No binding means not detected with the bait.

The chains behind the UniProt entries cited, without tags or fusion partners. Residues count along the entry.
UniProt P01558, residues 116-319: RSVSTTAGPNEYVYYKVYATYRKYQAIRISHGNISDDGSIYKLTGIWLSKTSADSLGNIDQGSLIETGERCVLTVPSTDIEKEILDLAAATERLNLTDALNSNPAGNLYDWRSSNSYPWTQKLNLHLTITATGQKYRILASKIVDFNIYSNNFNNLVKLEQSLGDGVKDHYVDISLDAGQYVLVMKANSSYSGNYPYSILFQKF
UniProt Q5I0H3, residues 1-97: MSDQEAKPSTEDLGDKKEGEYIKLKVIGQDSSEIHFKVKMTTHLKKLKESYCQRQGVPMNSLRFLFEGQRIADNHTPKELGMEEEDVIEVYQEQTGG
UniProt A0A0G2K2P5: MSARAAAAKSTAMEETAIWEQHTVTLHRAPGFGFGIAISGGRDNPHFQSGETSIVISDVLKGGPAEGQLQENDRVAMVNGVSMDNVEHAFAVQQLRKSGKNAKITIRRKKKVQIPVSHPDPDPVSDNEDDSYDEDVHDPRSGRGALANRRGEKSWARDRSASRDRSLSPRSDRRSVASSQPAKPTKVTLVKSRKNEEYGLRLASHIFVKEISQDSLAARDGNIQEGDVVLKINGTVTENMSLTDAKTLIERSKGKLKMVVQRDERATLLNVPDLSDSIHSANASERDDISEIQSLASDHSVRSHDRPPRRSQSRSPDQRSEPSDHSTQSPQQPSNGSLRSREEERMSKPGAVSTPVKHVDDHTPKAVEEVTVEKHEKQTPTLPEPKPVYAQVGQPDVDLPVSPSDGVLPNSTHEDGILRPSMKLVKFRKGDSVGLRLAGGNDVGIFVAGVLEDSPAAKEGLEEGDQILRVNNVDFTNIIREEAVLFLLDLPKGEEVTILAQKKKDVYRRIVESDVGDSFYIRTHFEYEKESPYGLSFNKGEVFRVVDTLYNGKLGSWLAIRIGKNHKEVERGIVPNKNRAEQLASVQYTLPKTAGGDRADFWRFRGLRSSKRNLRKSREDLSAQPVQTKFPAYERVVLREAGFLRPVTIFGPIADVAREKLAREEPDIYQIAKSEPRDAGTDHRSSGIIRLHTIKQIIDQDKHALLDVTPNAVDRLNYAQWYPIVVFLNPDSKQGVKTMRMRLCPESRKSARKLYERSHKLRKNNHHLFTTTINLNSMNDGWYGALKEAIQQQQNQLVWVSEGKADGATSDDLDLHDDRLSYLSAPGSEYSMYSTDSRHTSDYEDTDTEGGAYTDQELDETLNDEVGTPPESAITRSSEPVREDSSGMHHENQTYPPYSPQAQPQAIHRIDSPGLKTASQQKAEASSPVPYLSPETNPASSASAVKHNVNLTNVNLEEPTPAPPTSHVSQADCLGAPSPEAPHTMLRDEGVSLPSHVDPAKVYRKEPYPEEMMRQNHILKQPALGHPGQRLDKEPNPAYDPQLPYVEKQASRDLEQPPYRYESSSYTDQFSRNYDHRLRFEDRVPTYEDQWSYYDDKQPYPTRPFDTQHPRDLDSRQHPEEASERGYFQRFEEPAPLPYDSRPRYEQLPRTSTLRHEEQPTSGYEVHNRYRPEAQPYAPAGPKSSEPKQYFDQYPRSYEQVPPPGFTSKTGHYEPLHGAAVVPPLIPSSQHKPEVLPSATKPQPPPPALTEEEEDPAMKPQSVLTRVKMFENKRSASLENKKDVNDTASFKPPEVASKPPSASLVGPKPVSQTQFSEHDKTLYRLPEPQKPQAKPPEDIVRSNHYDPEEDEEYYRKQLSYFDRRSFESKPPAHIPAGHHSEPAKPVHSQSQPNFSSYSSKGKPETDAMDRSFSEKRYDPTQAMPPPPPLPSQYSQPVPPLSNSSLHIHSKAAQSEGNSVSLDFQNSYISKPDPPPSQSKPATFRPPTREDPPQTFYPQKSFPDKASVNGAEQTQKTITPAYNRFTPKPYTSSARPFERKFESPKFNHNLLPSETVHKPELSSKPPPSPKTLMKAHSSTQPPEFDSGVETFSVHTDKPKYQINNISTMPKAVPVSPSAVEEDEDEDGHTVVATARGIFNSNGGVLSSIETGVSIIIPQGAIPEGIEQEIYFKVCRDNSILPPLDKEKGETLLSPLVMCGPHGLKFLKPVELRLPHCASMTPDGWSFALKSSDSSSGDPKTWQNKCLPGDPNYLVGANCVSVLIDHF

The experiment addresses GST-CPE_(116–319) fusion protein (Clostridium perfringens) (UniProt P01558). As to the kind of experiment: affinity purification with mass spectrometry; only the target purified.

On to “Small ubiquitin-related modifier 1 (SUMO-1) (from UniProt Q5I0H3 1-97)”, for which the binding entry is “binds”.

Turning to ZO-1 (from UniProt A0A0G2K2P5 1-1765), the binding entry is “no binding”.

For the origin of these results see article PMC2713237.
